# These are yes or no findings as the source states them, for the method shown. Binding seen in cells or lysates may run through a third protein. Some entries that bind do so weakly or less than the wild type.
# Protein sequences, listed by entry. Tags and fused reporters are not part of them.
# UniProt Q92754: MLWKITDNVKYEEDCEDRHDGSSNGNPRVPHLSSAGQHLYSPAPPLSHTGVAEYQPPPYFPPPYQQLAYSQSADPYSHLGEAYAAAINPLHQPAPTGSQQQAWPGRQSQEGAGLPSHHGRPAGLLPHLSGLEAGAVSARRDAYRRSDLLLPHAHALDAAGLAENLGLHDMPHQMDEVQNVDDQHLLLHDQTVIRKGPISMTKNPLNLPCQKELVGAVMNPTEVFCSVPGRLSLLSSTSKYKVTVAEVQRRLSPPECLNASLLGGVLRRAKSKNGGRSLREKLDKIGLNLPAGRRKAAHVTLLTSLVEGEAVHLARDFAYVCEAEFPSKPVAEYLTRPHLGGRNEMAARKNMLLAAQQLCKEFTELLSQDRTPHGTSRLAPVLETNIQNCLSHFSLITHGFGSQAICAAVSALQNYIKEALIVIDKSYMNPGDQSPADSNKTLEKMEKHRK
# Molecular target: Flag-tagged AP2γ (UniProt Q92754)
# Test: co-IP; Flag-AP2γ captured from H1299 cell lysate (NP40 lysis buffer) on anti-FLAG M2 magnetic beads, 2-3 h at 4 °C; washed in 150 mM NaCl, 50 mM Tris pH 7.5, 1 mM EDTA, 0.5% NP40, 10% glycerol; eluted with Flag peptide; western blot with anti-p53 or anti-p73; for the TDD constructs cells treated with MG132 (1 μM)
row,binding,Binder
1,binds,"TAp73α (protein, UniProt O15350 1-636) MAQSTATSPDGGTTFEHLWSSLEPDSTYFDLPQSSRGNNEVVGGTDSSMDVFHLEGMTTSVMAQFNLLSSTMDQMSSRAASASPYTPEHAASVPTHSPYAQPSSTFDTMSPAPVIPSNTDYPGPHHFEVTFQQSSTAKSATWTYSPLLKKLYCQIAKTCPIQIKVSTPPPPGTAIRAMPVYKKAEHVTDVVKRCPNHELGRDFNEGQSAPASHLIRVEGNNLSQYVDDPVTGRQSVVVPYEPPQVGTEFTTILYNFMCNSSCVGGMNRRPILIIITLEMRDGQVLGRRSFEGRICACPGRDRKADEDHYREQQALNESSAKNGAASKRAFKQSPPAVPALGAGVKKRRHGDEDTYYLQVRGRENFEILMKLKESLELMELVPQPLVDSYRQQQQLLQRPSHLQPPSYGPVLSPMNKVHGGMNKLPSVNQLVGQPPPHSSAATPNLGPVGPGMLNNHGHAVPANGEMSSSHSAQSMVSGSHCTPPPPYHADPSLVSFLTGLGCPNCIEYFTSQGLQSIYHLQNLTIEDLGALKIPEQYRMTIWRGLQDLKQGHDYSTAQQLLRSSNAATISIGGSGELQRQRVMEAVHFRVRHTITIPNRGGPGGGPDEWADFGFDLPDCKARKQPIKEEFTEAEIH"
2,binds,"TAp73α L377P (protein, UniProt O15350 1-636) MAQSTATSPDGGTTFEHLWSSLEPDSTYFDLPQSSRGNNEVVGGTDSSMDVFHLEGMTTSVMAQFNLLSSTMDQMSSRAASASPYTPEHAASVPTHSPYAQPSSTFDTMSPAPVIPSNTDYPGPHHFEVTFQQSSTAKSATWTYSPLLKKLYCQIAKTCPIQIKVSTPPPPGTAIRAMPVYKKAEHVTDVVKRCPNHELGRDFNEGQSAPASHLIRVEGNNLSQYVDDPVTGRQSVVVPYEPPQVGTEFTTILYNFMCNSSCVGGMNRRPILIIITLEMRDGQVLGRRSFEGRICACPGRDRKADEDHYREQQALNESSAKNGAASKRAFKQSPPAVPALGAGVKKRRHGDEDTYYLQVRGRENFEILMKLKESLEPMELVPQPLVDSYRQQQQLLQRPSHLQPPSYGPVLSPMNKVHGGMNKLPSVNQLVGQPPPHSSAATPNLGPVGPGMLNNHGHAVPANGEMSSSHSAQSMVSGSHCTPPPPYHADPSLVSFLTGLGCPNCIEYFTSQGLQSIYHLQNLTIEDLGALKIPEQYRMTIWRGLQDLKQGHDYSTAQQLLRSSNAATISIGGSGELQRQRVMEAVHFRVRHTITIPNRGGPGGGPDEWADFGFDLPDCKARKQPIKEEFTEAEIH"

# Reference: article PMC6353964
